From paper PMC6513553
Like-named read-outs stand apart in the source and are kept apart here. These are yes or no findings as the source states them, for the method shown. In cells and extracts the contact can be indirect. Some binding calls cover weakened binding; strength is not graded here. For part of these data: Where a sequence is shown, tags or fusion partners need not be part of it.

Protein sequences, listed by entry. Tags and fused reporters are not part of them.
UniProt P83949: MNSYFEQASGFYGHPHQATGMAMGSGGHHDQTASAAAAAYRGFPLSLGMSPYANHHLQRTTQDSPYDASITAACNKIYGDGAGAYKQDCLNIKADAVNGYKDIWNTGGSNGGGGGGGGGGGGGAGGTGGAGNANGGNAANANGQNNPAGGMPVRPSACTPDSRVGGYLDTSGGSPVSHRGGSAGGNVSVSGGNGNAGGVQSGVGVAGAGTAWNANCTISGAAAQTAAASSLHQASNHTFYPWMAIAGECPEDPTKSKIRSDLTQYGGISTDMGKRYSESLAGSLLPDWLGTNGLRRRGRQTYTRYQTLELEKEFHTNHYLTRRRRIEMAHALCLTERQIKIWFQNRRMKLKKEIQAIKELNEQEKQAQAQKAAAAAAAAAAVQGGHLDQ
UniProt Q8ST83: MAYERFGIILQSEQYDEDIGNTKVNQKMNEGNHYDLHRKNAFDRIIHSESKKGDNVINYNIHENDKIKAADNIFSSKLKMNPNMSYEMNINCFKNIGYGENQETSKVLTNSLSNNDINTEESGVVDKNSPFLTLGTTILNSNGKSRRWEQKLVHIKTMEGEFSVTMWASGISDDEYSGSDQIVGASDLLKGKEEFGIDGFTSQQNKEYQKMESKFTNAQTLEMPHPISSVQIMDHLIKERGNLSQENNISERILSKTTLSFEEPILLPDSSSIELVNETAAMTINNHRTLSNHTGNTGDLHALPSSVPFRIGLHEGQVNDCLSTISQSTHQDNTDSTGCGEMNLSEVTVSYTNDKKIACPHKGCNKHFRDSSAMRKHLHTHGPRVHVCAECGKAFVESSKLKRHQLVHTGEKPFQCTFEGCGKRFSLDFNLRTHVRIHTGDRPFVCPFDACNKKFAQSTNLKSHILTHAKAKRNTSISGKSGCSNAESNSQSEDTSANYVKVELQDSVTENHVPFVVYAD

What was measured:
GFP-Ubx WT (Drosophila) [1] = molecular target: GFP-Ubx WT (Drosophila) (UniProt P83949); assay: co-IP; S2R+ Drosophila cells co-transfected; lysate in NP40 buffer (20 mM Tris pH7.5, 150 mM NaCl, 2 mM EDTA, 1% NP40); 1 to 1.5 mg of proteins incubated 3 hr with GFP-Trap beads; 3 washes; Western blot
[2] = molecular target: endogenous GFP-Ubx fusion protein (Drosophila (endogenous locus, in embryos)) (UniProt P83949); assay: co-IP; nuclear extract of embryos fixed with 3.2% formaldehyde, sonicated and treated with Benzonase; 4 to 5 mg of nuclear lysate in NP40 buffer incubated overnight with GFP-Trap beads; 5 washes; Western blot; w1118 embryos as control
GFP-Ubx WT (Drosophila) [3] = molecular target: GFP-Ubx WT (Drosophila) (UniProt P83949); assay: co-IP; S2R+ Drosophila cells co-transfected; lysate in NP40 buffer (20 mM Tris pH7.5, 150 mM NaCl, 2 mM EDTA, 1% NP40); 1 to 1.5 mg of proteins incubated 3 hr with GFP-Trap beads; 3 washes; Western blot; remark: listed apart in the source

Molecule: HA-Pho (from UniProt Q8ST83 1-520)
- binding (GFP-Ubx WT (Drosophila) [1]): binds weakly

Molecule: Pleiohomeotic (Pho), endogenous (from UniProt Q8ST83 1-520)
- binding [2]: binds weakly

B1: HA-Trl (protein, UniProt Q08605 1-582)
chain: MSLPMNSLYSLTWGDYGTSLVSAIQLLRCHGDLVDCTLAAGGRSFPAHKIVLCAASPFLLDLLKNTPCKHPVVMLAGVNANDLEALLEFVYRGEVSVDHAQLPSLLQAAQCLNIQGLAPQTVTKDDYTTHSIQLQHMIPQHHDQDQLIATIATAPQQTVHAQVVEDIHHQGQILQATTQTNAAGQQQTIVTTDAAKHDQAVIQAFLPARKRKPRVKKMSPTAPKISKVEGMDTIMGTPTSSHGSGSVQQVLGENGAEGQLLSSTPIIKSEGQKVETIVTMDPNNMIPVTSANAATGEITPAQGATGSSGGNTSGVLSTPKAKRAKHPPGTEKPRSRSQSEQPATCPICYAVIRQSRNLRRHLELRHFAKPGVKKEKKTTSGKKSSSGSSGSGSGALSSSGSVPQVQTVQSLHTLQGVQVKKDPDAQQQQQQQQQQQQQQQQQAMTVSGATGGQVQQQVQQVQQQVQQQQQQQQQQQQQLQHHQIIDSSGNITTATTSAQAAAAAQQQAAGQQQQLVAQSDGSESGAPLSIAQVQTLQGHQIIGNLNQVNITDFQQQQPQQQQQQQQQQQQQQQQQQQTQQTL
- binding (GFP-Ubx WT (Drosophila) [3]): binds
